Measurements reported in PubChem BioAssay AID1053208 (Peter MacCallum Cancer Centre, 2014).

- Test: 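Synthetic lethal interactions between gene loss and doxorubicin in osteosarcoma cells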 (primary screen)
- System: mouse osteosarcoma cells, early-passage culture from an engineered mouse model of fibroblastic bone tumour
- Knock-down reagent: siRNA pool against mouse genes, 40 nM
- Timing: about 120 h (48 h before drug, then 72 h with drug)
- Conditions: doxorubicin 100 nM for 72 h, roughly 30-40% inhibitory dose
- Measurement: 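Viability read as ATP luminescence after 72 h of 100 nM doxorubicin or none, duplicate wells averaged, scaled to non-targeting siRNA, then expressed as robust z-scores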
- Scale: viability z-score with doxorubicin and doxorubicin viability vs non-targeting: higher = more viable cells under doxorubicin; viability z-score without drug: higher = more viable cells with knock-down alone; z-score of drug to no-drug ratio: higher = less drug sensitisation by knock-down
- Hit rule: 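Called active if knock-down leaves viability unchanged without drug (z within -2 to 2) but lowers it with doxorubicin (z at or under -2)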
The whole screen tested about 17,000 reagents; this is an unselected part. 788 of all reagents (4.7%) were called active. 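Calls rest on z-score classes alone; an extra cut-off of viability at most 70% of control was not applied to them.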 A number with no mark means an inactive call.

no.	Target gene	combined z-score class	viability z-score with doxorubicin	viability z-score without drug	z-score of drug to no-drug ratio	doxorubicin viability vs non-targeting
1	Cend1 (cell cycle exit and neuronal differentiation 1)	no change with or without drug	-1.8	0.84	-2.25	0.78
2	Fam241a (family with sequence similarity 241, member A)	no change with or without drug	0.45	0.67	0.11	0.98
3	Fkbp3 (FK506 binding protein 3)	no change with or without drug	-0.45	0.51	-0.67	0.9
4	Osbpl2 (oxysterol binding protein-like 2)	no change with or without drug	-1.69	-0.34	-1.46	0.79
5	Agtr1a (angiotensin II receptor, type 1a)	no change with or without drug	0.9	0.51	0.67	1.02
6	Pbx2 (pre B cell leukemia homeobox 2)	no change with or without drug	-0.22	-0.17	0	0.92
7	Or4k51 (olfactory receptor family 4 subfamily K member 51)	no change with or without drug	-0.9	-1.18	0	0.86
8	Cblif (cobalamin binding intrinsic factor)	no change with or without drug	-0.67	0.67	-1.01	0.88
9	H1f1 (H1.1 linker histone, cluster member)	no change with or without drug	1.24	-0.17	1.57	1.05
10	Skor1 (SKI family transcriptional corepressor 1)	no change with or without drug	0.56	0.51	0.34	0.99
11	Dazap1 (DAZ associated protein 1)	no change with or without drug	-0.45	0.84	-0.9	0.9

Entries listed so far whose gene name begins with C or c (2):
Target gene	combined z-score class	viability z-score with doxorubicin	viability z-score without drug	z-score of drug to no-drug ratio	doxorubicin viability vs non-targeting
Cend1 (cell cycle exit and neuronal differentiation 1)	no change with or without drug	-1.8	0.84	-2.25	0.78
Cblif (cobalamin binding intrinsic factor)	no change with or without drug	-0.67	0.67	-1.01	0.88

The results go on:
no.	Target gene	combined z-score class	viability z-score with doxorubicin	viability z-score without drug	z-score of drug to no-drug ratio	doxorubicin viability vs non-targeting
12	Lins1 (lines homolog 1)	no change with or without drug	-0.34	-0.51	0.11	0.91
13	Tspan11 (tetraspanin 11)	no change with or without drug	0	-0.51	0.45	0.94
14	Or1j14 (olfactory receptor family 1 subfamily J member 14)	no change with or without drug	-0.79	-0.84	-0.11	0.87
15	Rhoh (ras homolog family member H)	high cell count without drug only	1.01	3.37	-0.9	1.03
16	Iigp1 (interferon inducible GTPase 1)	no change with or without drug	0.34	0.17	0.34	0.97
17	Hdgf (heparin binding growth factor)	no change with or without drug	-0.45	0.34	-0.56	0.9
18	Hexim1 (hexamethylene bis-acetamide inducible 1)	low cell count with doxorubicin only (active)	-2.7	-0.34	-2.59	0.7
19	Sec62 (SEC62 homolog, preprotein translocation)	no change with or without drug	-0.9	-0.17	-0.79	0.86
20	Or14j7 (olfactory receptor family 14 subfamily J member 7)	no change with or without drug	-0.22	-1.35	0.9	0.92
